The values that follow come from article PMC7925596, “Exploring targeting peptide-shell interactions in encapsulin nanocompartments” (Scientific Reports, 2021).

Results are given in words; binding and its absence hold for the method and conditions named. Some binding calls cover weakened binding; strength is not graded here. Sequences can lack the tags named with a protein.

Assay [1] concerns the target Myxococcus xanthus encapsulin (T3 encapsulin shell) (M. xanthus) (UniProt Q1D6H4). Put plainly: bulk fluorescence of purified encapsulin particles (loading percentage); particles loaded in E. coli and purified; 15 ug/mL in 20 mM Tris, 100 mM NaCl, pH 8 with 1 mg/mL BSA; plate reader Ex 500 nm, Em 530 nm, 20 C; loading = percentage of occupied TP binding sites (T1: 60, T3: 180), mNeonGreen standard curve; triplicates.

Assay [2] concerns the target Thermotoga maritima encapsulin (T1 encapsulin shell) (T. maritima) (UniProt Q9WZP2). Put plainly: single particle fluorescence imaging; purified particles loaded in E. coli, diluted 200x (T1) or 1000x (T3), immobilised in glass flow chambers; wide field microscopy, spot intensities by Gaussian fit.
Assay [3] concerns the target Myxococcus xanthus encapsulin (T3 encapsulin shell) (M. xanthus) (UniProt Q1D6H4). The assay is described as above.
For assay [4], the target named is Thermotoga maritima encapsulin (T1 encapsulin shell) (T. maritima) (UniProt Q9WZP2). Put plainly: bulk fluorescence of purified encapsulin particles (loading percentage); particles loaded in E. coli and purified; 15 ug/mL in 20 mM Tris, 100 mM NaCl, pH 8 with 1 mg/mL BSA; plate reader Ex 500 nm, Em 530 nm, 20 C; loading = percentage of occupied TP binding sites (T1: 60, T3: 180), mNeonGreen standard curve; triplicates.

B1: mNeonGreen fused to the T3 targeting peptide mutant S6A (peptide)
chain: PLTVGALRRGG
With B1, in assay [1], the binding result was “binds”.

B2: mNeonGreen fused to the T3 targeting peptide mutant G10W (peptide)
chain: PLTVGSLRRWG
In the case of B2, the binding entry in assay [1] is listed as “binds”.

B3: mNeonGreen C-terminally fused to the T1 consensus targeting peptide (peptide)
chain: DGSLGIGSLKG
notes: consensus targeting peptide found in T1 encapsulin systems; The targeting peptide is at the C-terminus of mNeonGreen; also called mNeonGreenTP (T1 consensus TP); T1 consensus TP; source: E. coli One shot BL21 (DE3) Star, pCDF-Duet1, IPTG induced before encapsulin; co-purified with encapsulin particles; not shown: mNeonGreen, N-terminal, kept
Turning to B3, the binding entry in assay [2] was “binds”.

B4: mNeonGreen fused to the T3 targeting peptide mutant R9A (peptide)
chain: PLTVGSLRAGG
With B4, the binding result in assay [1] is recorded as “binds”.

B5: mNeonGreen C-terminally fused to the native T1 targeting peptide (peptide)
chain: NTGGDLGIRK
notes: native targeting peptide of the T. maritima (T1) encapsulin system, from the C-terminus of the native cargo protein; The targeting peptide is at the C-terminus of mNeonGreen; also called mNeonGreenTP (native T1 TP); native T1 TP; source: E. coli One shot BL21 (DE3) Star, pCDF-Duet1, IPTG induced before encapsulin; co-purified with encapsulin particles; not shown: mNeonGreen, N-terminal, kept
Turning to B5, the binding result in assay [2] is listed as “binds”.

B6: mNeonGreen C-terminally fused to the native T3 targeting peptide (peptide)
chain: PLTVGSLRRGG
notes: native 11-residue targeting peptide of the M. xanthus (T3) encapsulin system; The targeting peptide is at the C-terminus of mNeonGreen; also called mNeonGreenTP (native T3 TP); native T3 TP; source: E. coli One shot BL21 (DE3) Star, pCDF-Duet1, IPTG induced before encapsulin; co-purified with encapsulin particles; not shown: mNeonGreen, N-terminal, kept
B6: the binding result in assay [3] is on record as “binds”.

B7: mNeonGreen C-terminally fused to the GGS control targeting peptide (peptide)
chain: GGSGGSGGSGG
For B7, the binding entry in assay [4] and in assay [1] was “no binding” throughout.
